These are yes or no findings as the source states them, for the method shown. Binding seen in cells or lysates may run through a third protein. A yes stands for co-enrichment or nearness to the bait. Other partners may have been found. For some assays here: A no says only that the protein was not detected with the bait.
Assays:
TBX3-∆NPF-BirA = TBX3-∆NPF-BirA (UniProt O15119); assay: proximity labelling; BioID: TBX3 (wild type or deletion mutant) fused to BirA expressed in HEK293T cells cultured in 10 µM CHIR99021 (WNT-ON; also done in 10 nM LGK974, WNT-OFF); biotinylated nuclear extracts, streptavidin pulldown, mass spectrometry; against EV-BirA control; SAINT score > 0.6, BFDR < 0.05; n = 3
TBX3-WT-BirA [1] = target: T1, TBX3-WT-BirA (UniProt O15119); assay: as above
T1 sequence: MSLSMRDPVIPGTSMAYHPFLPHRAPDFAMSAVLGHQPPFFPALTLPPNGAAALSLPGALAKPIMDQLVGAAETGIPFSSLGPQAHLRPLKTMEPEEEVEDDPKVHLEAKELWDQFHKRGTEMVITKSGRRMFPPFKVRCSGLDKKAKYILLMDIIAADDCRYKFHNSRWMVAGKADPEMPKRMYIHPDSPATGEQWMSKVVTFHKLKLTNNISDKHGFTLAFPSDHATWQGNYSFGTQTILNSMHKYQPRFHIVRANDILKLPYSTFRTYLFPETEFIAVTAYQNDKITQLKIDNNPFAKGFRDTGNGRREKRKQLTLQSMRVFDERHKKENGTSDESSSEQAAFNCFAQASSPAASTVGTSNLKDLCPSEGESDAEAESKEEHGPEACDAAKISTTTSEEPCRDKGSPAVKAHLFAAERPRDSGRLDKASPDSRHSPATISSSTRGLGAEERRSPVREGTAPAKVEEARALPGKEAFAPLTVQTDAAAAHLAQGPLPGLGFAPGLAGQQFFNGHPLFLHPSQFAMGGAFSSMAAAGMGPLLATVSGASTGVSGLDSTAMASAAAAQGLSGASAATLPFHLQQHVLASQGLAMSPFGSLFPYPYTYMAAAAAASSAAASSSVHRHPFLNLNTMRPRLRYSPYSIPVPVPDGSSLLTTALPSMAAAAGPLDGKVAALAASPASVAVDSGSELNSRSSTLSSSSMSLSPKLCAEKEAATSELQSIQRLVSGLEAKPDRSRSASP

The chains behind the UniProt entries cited, without tags or fusion partners.
UniProt O60264: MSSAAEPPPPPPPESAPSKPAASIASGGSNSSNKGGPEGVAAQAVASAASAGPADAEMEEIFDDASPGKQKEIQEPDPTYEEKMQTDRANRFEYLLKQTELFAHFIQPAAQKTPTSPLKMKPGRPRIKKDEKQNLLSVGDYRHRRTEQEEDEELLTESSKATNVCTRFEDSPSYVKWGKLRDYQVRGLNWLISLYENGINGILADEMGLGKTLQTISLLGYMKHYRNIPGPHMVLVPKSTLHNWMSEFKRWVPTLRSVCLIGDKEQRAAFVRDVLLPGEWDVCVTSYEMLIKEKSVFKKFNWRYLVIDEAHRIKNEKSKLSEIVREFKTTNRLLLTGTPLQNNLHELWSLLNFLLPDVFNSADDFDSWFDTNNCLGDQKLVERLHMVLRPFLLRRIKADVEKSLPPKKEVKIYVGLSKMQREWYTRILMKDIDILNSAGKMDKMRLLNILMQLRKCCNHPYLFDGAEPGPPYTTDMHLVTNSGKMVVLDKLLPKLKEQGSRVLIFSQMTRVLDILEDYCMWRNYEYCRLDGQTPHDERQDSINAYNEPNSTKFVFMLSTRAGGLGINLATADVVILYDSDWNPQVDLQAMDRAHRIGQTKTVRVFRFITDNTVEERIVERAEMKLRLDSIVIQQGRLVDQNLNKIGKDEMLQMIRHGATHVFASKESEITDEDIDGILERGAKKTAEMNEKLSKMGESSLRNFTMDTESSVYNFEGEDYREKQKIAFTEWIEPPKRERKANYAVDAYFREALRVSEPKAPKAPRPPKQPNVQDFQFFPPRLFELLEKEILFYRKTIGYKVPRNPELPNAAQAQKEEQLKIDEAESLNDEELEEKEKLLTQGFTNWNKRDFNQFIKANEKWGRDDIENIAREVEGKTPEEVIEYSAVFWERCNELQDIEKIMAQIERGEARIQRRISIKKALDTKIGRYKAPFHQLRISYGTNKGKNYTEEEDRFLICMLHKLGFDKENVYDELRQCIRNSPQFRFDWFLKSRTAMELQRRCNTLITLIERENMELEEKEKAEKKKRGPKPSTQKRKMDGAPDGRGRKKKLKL
UniProt Q9Y4A5: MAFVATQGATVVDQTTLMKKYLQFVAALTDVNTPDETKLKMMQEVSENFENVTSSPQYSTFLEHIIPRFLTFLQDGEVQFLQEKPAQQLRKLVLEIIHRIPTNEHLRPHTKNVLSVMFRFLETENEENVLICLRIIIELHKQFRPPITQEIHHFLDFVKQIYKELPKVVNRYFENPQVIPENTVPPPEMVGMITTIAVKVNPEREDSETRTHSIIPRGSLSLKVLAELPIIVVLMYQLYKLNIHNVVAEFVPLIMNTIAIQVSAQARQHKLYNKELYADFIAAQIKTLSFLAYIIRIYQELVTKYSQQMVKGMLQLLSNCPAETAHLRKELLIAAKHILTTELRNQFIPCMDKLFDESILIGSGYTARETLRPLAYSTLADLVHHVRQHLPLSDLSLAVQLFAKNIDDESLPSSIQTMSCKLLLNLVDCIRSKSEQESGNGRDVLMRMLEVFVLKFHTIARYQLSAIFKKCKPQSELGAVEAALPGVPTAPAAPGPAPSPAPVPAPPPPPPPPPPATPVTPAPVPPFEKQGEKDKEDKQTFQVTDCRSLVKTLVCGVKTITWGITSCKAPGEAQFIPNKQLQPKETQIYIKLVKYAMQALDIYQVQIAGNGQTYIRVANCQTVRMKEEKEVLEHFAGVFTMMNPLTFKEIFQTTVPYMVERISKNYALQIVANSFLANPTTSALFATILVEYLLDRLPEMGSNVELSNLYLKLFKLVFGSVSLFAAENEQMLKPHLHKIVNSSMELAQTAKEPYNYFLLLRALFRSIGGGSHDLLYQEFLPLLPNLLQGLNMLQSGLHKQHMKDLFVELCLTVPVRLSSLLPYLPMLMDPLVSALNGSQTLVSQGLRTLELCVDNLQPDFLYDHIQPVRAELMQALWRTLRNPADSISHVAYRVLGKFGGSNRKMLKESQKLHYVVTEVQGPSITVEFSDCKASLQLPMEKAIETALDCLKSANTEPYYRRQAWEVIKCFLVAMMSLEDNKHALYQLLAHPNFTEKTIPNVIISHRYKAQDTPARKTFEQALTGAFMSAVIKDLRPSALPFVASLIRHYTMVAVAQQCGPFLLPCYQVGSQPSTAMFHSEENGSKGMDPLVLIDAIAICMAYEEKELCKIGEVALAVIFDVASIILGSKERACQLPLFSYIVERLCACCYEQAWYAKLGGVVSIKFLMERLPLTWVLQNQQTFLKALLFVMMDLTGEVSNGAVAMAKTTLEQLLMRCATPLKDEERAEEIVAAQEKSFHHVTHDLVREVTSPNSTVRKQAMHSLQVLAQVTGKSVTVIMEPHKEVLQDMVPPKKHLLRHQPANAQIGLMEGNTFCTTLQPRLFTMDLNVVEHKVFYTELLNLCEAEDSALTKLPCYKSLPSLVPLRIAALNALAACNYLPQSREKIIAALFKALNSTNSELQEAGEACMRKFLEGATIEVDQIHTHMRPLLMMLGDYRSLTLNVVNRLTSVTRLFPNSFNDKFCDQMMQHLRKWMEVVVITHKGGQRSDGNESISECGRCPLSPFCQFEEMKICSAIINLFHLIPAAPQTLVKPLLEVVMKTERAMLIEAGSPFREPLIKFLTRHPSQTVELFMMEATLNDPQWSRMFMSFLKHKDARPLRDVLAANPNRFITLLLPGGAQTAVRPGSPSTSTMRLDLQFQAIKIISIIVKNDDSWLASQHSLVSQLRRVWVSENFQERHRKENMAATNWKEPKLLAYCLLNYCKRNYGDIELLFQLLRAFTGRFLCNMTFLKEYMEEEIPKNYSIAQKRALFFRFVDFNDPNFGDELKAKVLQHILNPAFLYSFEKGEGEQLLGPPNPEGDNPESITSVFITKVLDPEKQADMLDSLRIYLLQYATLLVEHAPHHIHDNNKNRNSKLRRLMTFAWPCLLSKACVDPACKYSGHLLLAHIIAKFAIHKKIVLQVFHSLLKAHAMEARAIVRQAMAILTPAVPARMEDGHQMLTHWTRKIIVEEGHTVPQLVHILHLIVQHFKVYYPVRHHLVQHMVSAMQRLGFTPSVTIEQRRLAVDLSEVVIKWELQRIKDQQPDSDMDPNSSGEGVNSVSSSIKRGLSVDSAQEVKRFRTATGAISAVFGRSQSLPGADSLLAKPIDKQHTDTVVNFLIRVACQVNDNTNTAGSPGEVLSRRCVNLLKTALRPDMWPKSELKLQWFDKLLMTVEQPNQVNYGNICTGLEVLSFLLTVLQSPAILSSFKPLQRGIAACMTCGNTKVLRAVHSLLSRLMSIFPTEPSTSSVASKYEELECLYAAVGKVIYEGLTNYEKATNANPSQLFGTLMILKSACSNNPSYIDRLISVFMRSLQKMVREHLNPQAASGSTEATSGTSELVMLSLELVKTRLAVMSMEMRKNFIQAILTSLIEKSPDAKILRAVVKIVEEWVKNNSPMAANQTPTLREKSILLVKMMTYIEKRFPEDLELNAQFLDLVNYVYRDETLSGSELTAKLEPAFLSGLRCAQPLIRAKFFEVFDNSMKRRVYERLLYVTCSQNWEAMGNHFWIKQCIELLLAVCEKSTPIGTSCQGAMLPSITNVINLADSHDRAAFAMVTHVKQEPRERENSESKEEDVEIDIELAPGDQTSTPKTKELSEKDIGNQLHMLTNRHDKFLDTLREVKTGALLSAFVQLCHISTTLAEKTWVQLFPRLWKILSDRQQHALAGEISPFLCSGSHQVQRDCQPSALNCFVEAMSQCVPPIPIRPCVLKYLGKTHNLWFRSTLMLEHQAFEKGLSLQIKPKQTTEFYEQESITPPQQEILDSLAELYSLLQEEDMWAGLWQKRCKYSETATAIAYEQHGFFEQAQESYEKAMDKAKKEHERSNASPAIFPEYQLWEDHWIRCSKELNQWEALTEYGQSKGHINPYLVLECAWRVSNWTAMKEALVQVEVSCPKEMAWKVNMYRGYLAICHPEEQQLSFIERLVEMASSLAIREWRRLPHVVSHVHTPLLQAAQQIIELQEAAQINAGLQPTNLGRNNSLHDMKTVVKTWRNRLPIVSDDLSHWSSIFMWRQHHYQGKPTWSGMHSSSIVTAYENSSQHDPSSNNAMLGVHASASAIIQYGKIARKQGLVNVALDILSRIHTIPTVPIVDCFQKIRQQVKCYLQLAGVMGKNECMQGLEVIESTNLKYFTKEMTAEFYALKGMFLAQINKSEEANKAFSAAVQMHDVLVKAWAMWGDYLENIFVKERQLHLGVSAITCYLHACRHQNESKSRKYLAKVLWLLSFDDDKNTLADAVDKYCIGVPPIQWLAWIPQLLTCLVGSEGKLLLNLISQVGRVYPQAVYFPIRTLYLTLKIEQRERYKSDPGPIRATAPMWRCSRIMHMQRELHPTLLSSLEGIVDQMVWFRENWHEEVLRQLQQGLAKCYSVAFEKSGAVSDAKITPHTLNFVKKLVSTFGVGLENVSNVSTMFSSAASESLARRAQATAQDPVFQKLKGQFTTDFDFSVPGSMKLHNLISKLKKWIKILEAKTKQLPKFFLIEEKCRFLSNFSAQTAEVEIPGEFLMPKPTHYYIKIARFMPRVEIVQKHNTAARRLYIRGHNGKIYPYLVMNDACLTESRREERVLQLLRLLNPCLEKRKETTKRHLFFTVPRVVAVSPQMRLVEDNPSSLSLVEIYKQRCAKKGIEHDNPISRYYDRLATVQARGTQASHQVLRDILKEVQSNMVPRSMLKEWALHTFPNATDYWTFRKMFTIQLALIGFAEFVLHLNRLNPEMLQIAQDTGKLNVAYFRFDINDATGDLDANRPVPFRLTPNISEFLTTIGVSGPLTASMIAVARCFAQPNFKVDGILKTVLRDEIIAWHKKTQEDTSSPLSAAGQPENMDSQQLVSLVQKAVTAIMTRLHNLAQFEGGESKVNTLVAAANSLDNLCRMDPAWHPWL
UniProt O00571: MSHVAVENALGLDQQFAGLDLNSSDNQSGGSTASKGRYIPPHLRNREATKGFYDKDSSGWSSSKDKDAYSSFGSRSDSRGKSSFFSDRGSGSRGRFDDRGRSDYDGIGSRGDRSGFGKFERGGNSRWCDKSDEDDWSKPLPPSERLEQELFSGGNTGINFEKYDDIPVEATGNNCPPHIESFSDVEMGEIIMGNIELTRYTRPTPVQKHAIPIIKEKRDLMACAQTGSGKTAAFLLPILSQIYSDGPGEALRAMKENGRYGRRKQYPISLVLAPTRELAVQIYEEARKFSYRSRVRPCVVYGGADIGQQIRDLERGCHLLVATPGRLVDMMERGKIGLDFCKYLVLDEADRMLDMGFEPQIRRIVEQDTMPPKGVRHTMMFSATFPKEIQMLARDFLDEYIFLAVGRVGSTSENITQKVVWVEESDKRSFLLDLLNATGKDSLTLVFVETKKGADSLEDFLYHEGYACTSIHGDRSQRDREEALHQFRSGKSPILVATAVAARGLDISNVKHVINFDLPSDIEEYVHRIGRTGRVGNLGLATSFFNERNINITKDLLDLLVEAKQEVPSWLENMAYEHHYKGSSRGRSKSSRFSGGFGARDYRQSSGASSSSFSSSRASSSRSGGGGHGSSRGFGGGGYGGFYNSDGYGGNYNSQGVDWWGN
UniProt P35222: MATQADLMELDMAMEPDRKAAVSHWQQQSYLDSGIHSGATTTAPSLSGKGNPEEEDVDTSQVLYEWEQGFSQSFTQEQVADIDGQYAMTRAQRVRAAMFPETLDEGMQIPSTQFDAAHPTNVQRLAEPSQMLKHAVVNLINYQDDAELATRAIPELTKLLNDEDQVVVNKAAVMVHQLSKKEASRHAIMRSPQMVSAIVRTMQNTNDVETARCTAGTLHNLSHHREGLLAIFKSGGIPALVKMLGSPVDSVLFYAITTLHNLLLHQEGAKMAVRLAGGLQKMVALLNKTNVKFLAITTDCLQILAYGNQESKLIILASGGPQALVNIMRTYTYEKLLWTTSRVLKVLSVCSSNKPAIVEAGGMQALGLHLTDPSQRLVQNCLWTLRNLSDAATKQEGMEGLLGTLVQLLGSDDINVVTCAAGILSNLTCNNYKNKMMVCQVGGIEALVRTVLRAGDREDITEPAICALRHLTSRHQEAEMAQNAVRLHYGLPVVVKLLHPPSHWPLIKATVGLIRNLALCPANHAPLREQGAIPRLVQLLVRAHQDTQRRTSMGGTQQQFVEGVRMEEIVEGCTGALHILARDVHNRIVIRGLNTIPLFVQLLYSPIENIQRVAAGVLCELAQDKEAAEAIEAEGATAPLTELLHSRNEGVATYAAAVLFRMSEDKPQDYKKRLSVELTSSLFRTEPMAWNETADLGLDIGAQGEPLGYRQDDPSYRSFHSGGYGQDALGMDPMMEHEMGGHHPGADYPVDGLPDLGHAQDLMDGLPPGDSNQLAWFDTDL

TBX3-∆RRM-BirA = TBX3-∆RRM-BirA (UniProt O15119); assay: as above
TBX3-WT-BirA [2] = target: T1, TBX3-WT-BirA; assay: proximity labelling; BioID as a1, cells cultured in 10 nM LGK974 (WNT-OFF, endogenous WNT secretion inhibited); biotinylated nuclear extracts, streptavidin pulldown, mass spectrometry; against EV-BirA control; n = 3

| Substance | binding (TBX3-∆NPF-BirA) | binding (TBX3-WT-BirA [1]) | binding (TBX3-∆RRM-BirA) | binding (TBX3-WT-BirA [2]) |
| --- | --- | --- | --- | --- |
| SMARCA4 (from UniProt P51532 1-1647) | binds | binds | binds | – |
| SMARCA5 (from UniProt O60264 1-1052) | – | binds | – | – |
| TRRAP (from UniProt Q9Y4A5 1-3859) | no binding | binds | no binding | – |

Second part, the substance after the results:

| binding (TBX3-∆NPF-BirA) | binding (TBX3-WT-BirA [1]) | binding (TBX3-∆RRM-BirA) | binding (TBX3-WT-BirA [2]) | Substance |
| --- | --- | --- | --- | --- |
| no binding | binds | no binding | – | DDX3X (from UniProt O00571 1-662) |
| no binding | binds | no binding | no binding (only WNT-OFF (10 nM LGK974)) | β-catenin (from UniProt P35222 1-781) |
